This passage reports binding results from article PMC8464548.

Results are given in words; binding and its absence hold for the method and conditions named. In cells and extracts the contact can be indirect. Some binding calls cover weakened binding; strength is not graded here. For part of these data: Sequences can lack the tags named with a protein.

For experiment [1], the target named is T1, endogenous TBC1D7 (human (endogenous in HepG2 and SK-Hep1)) (UniProt Q9P0N9).
T1 sequence: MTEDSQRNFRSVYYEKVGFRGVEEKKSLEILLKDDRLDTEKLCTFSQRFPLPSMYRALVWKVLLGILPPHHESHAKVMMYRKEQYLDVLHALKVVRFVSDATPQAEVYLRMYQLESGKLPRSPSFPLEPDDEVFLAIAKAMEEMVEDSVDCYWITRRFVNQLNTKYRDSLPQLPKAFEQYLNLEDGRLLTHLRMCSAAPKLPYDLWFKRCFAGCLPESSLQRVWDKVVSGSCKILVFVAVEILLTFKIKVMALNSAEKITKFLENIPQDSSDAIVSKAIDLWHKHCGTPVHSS
Description: co-IP; endogenous TBC1D7, TSC1 and TSC2 in SK-Hep1 cells with KIF2C knock-down and in HepG2 cells with KIF2C overexpression, against control cells; TNE lysis buffer, protein A/G beads 4 °C 4 h; Western blot. On the technique in general: In western blotting, separated proteins are transferred to a membrane and probed.

Experiment [2] has as its target T2, epitope-tagged KIF2C overexpressed in HEK293T cells (human) (UniProt Q99661).
T2 sequence: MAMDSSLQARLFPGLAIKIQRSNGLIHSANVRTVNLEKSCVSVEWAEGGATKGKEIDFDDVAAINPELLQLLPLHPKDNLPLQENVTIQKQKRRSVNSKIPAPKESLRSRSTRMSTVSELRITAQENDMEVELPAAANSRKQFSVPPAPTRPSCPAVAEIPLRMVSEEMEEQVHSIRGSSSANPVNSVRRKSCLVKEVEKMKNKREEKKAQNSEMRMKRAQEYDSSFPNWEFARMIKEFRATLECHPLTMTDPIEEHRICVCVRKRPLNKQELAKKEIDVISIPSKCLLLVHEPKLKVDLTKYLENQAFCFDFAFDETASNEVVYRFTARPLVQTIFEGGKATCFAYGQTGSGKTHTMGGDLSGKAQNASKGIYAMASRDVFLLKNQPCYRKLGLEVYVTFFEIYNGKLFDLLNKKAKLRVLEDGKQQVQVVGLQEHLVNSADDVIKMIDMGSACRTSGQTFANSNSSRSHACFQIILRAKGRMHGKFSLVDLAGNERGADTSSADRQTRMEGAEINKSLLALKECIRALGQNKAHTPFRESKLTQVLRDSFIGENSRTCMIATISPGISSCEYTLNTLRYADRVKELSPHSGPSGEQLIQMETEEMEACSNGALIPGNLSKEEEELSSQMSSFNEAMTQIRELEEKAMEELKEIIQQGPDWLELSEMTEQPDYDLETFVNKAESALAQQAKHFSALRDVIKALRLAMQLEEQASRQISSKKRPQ
The experiment is described as follows: co-IP; epitope-tagged KIF2C and TBC1D7 overexpressed in HEK293T cells; TNE lysis buffer, protein A/G beads 4 °C 4 h; Western blot.

In experiment [3] the target is T3, endogenous KIF2C (human (endogenous in HepG2 or SK-Hep1)) (UniProt Q99661).
T3 sequence: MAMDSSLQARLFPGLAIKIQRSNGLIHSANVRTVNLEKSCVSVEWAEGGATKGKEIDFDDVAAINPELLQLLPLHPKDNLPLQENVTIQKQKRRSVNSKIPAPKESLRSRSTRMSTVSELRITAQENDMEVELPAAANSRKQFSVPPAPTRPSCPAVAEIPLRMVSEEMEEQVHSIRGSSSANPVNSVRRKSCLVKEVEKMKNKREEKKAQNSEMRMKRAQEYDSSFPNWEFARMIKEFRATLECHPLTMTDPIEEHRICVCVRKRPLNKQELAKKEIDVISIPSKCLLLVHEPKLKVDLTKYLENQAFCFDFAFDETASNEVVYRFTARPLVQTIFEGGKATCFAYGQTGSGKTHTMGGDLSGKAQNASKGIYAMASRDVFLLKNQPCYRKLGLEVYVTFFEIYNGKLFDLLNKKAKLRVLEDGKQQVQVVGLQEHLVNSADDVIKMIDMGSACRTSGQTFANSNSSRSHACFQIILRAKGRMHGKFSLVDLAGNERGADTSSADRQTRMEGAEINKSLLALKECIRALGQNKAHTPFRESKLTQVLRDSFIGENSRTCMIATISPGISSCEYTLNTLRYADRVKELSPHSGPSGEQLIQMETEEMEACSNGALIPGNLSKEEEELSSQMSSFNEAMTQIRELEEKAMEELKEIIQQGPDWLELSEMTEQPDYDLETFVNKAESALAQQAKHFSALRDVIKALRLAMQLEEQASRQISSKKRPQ
Description: co-IP; endogenous proteins; HepG2 cells by the text, wild type SK-Hep1 cells by the legend; TNE lysis buffer, protein A/G beads 4 °C 4 h; Western blot.

B1: tuberous sclerosis complex 1 (TSC1), endogenous (protein, UniProt Q92574 1-1164)
chain: MAQQANVGELLAMLDSPMLGVRDDVTAVFKENLNSDRGPMLVNTLVDYYLETSSQPALHILTTLQEPHDKHLLDRINEYVGKAATRLSILSLLGHVIRLQPSWKHKLSQAPLLPSLLKCLKMDTDVVVLTTGVLVLITMLPMIPQSGKQHLLDFFDIFGRLSSWCLKKPGHVAEVYLVHLHASVYALFHRLYGMYPCNFVSFLRSHYSMKENLETFEEVVKPMMEHVRIHPELVTGSKDHELDPRRWKRLETHDVVIECAKISLDPTEASYEDGYSVSHQISARFPHRSADVTTSPYADTQNSYGCATSTPYSTSRLMLLNMPGQLPQTLSSPSTRLITEPPQATLWSPSMVCGMTTPPTSPGNVPPDLSHPYSKVFGTTAGGKGTPLGTPATSPPPAPLCHSDDYVHISLPQATVTPPRKEERMDSARPCLHRQHHLLNDRGSEEPPGSKGSVTLSDLPGFLGDLASEEDSIEKDKEEAAISRELSEITTAEAEPVVPRGGFDSPFYRDSLPGSQRKTHSAASSSQGASVNPEPLHSSLDKLGPDTPKQAFTPIDLPCGSADESPAGDRECQTSLETSIFTPSPCKIPPPTRVGFGSGQPPPYDHLFEVALPKTAHHFVIRKTEELLKKAKGNTEEDGVPSTSPMEVLDRLIQQGADAHSKELNKLPLPSKSVDWTHFGGSPPSDEIRTLRDQLLLLHNQLLYERFKRQQHALRNRRLLRKVIKAAALEEHNAAMKDQLKLQEKDIQMWKVSLQKEQARYNQLQEQRDTMVTKLHSQIRQLQHDREEFYNQSQELQTKLEDCRNMIAELRIELKKANNKVCHTELLLSQVSQKLSNSESVQQQMEFLNRQLLVLGEVNELYLEQLQNKHSDTTKEVEMMKAAYRKELEKNRSHVLQQTQRLDTSQKRILELESHLAKKDHLLLEQKKYLEDVKLQARGQLQAAESRYEAQKRITQVFELEILDLYGRLEKDGLLKKLEEEKAEAAEAAEERLDCCNDGCSDSMVGHNEEASGHNGETKTPRPSSARGSSGSRGGGGSSSSSSELSTPEKPPHQRAGPFSSRWETTMGEASASIPTTVGSLPSSKSFLGMKARELFRNKSESQCDEDGMTSSLSESLKTELGKDLGVEAKIPLNLDGPHPSPPTPDSVGQLHIMDYNETHHEHS
Turning to B1, in experiment [1], the binding entry is on record as “binds”.

B2: epitope-tagged TBC1D7 overexpressed in HEK293T cells (protein, UniProt Q9P0N9 1-293)
chain: MTEDSQRNFRSVYYEKVGFRGVEEKKSLEILLKDDRLDTEKLCTFSQRFPLPSMYRALVWKVLLGILPPHHESHAKVMMYRKEQYLDVLHALKVVRFVSDATPQAEVYLRMYQLESGKLPRSPSFPLEPDDEVFLAIAKAMEEMVEDSVDCYWITRRFVNQLNTKYRDSLPQLPKAFEQYLNLEDGRLLTHLRMCSAAPKLPYDLWFKRCFAGCLPESSLQRVWDKVVSGSCKILVFVAVEILLTFKIKVMALNSAEKITKFLENIPQDSSDAIVSKAIDLWHKHCGTPVHSS
In the case of B2, the binding entry in experiment [2] is listed as “binds”.

B3: endogenous TBC1D7 (protein, UniProt Q9P0N9 1-293)
chain: MTEDSQRNFRSVYYEKVGFRGVEEKKSLEILLKDDRLDTEKLCTFSQRFPLPSMYRALVWKVLLGILPPHHESHAKVMMYRKEQYLDVLHALKVVRFVSDATPQAEVYLRMYQLESGKLPRSPSFPLEPDDEVFLAIAKAMEEMVEDSVDCYWITRRFVNQLNTKYRDSLPQLPKAFEQYLNLEDGRLLTHLRMCSAAPKLPYDLWFKRCFAGCLPESSLQRVWDKVVSGSCKILVFVAVEILLTFKIKVMALNSAEKITKFLENIPQDSSDAIVSKAIDLWHKHCGTPVHSS
In the case of B3, the binding entry in experiment [3] is on record as “binds”.
